{"sequences": {"note": "The chains behind the UniProt entries cited, without tags or fusion partners.", "UniProt Q0JBA9, entry or part of it": "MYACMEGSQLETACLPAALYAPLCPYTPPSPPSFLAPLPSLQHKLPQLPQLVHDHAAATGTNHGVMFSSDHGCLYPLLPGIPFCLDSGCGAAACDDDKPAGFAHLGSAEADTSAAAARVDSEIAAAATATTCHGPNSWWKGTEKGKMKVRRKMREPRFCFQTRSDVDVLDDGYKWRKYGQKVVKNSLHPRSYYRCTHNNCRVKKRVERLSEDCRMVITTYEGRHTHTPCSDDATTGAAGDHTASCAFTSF"}, "source": "paper PMC7819943", "about": "“Rice protein-binding microarrays: a tool to detect cis-acting elements near promoter regions in rice”", "note": "This is one part of the list.", "data": [{"target": "OsWRKY34 (Oryza sativa, UniProt Q0JBA9 1-250)", "assay": "protein-binding microarray (RPBM); PBS, 2% BSA, 51.3 ng/ul salmon testes DNA, 50 uM zinc acetate, 200 nM TF, 25 C, 1 h; high values mean tight binding", "conditions": "protein: recombinant; tags: N-terminal polyhistidine and DsRed monomer fusion (pET32a); label: CyDye5-dUTP incorporated in the synthesized complementary strand; 3' TTTTT single-stranded linker to array surface; dsDNA, one strand shown", "outline": "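An Axon 4000B scanner gave the binding signal as per-feature fluorescence intensity in arbitrary units. This followed washing of a custom Agilent array that had been incubated for 1 h at 25 °C with 200 nM protein in PBS, 2% BSA, salmon testes DNA and 50 µM zinc acetate. The proteins were transcription factors fused at the N-terminus to polyhistidine and DsRed, expressed in E. coli BL21-CodonPlus and purified on Ni–NTA.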", "values": [{"sequence": "CACAAGTAGGCATTAACAGCTTCTGTTTCTTCTATTATTACGGAGTCACCTAGTGCAG", "binding signal": "8960 fluorescence intensity (a.u.)"}, {"sequence": "GCTGTGTGGGAGGGAGGGAGGAAGGGATTGACGAAAATAGCGGAGTCACCTAGTGCAG", "binding signal": "12600 fluorescence intensity (a.u.)"}, {"sequence": "ATTATTGAGTGTCAGTAGTACATATTCCTTTCTTGATTCTCGGAGTCACCTAGTGCAG", "binding signal": "8240 fluorescence intensity (a.u.)"}, {"sequence": "CCTGAAGTTGAATTCCCGACCTTTTTTGTTCAGCTATTGACGGAGTCACCTAGTGCAG", "binding signal": "10800 fluorescence intensity (a.u.)"}, {"sequence": "TCATTTATAGGCAATGTACTTCACAATGCTTGTGATCTTTCGGAGTCACCTAGTGCAG", "binding signal": "8280 fluorescence intensity (a.u.)"}, {"sequence": "TGGCGTCTTGTTGGTTAGTCTGTTGAAATGTGATTTTTATCGGAGTCACCTAGTGCAG", "binding signal": "9960 fluorescence intensity (a.u.)"}, {"sequence": "GTACATTATTCAATTTAGTTGTGTGCATCTAGCTTACTGACGGAGTCACCTAGTGCAG", "binding signal": "9080 fluorescence intensity (a.u.)"}, {"sequence": "TTTTTCCTCTTTTCTTTTATTGTTTTTGCGACTTAAAACCCGGAGTCACCTAGTGCAG", "binding signal": "8550 fluorescence intensity (a.u.)"}, {"sequence": "ATCGCGCATCACCCCTAGCCCTAGCCAACTACTACCTTAGCGGAGTCACCTAGTGCAG", "binding signal": "8690 fluorescence intensity (a.u.)"}, {"sequence": "TTTAAAGATGGGTGGGAAATCATTTCTCTTTCCCATTTGCCGGAGTCACCTAGTGCAG", "binding signal": "10600 fluorescence intensity (a.u.)"}, {"sequence": "CTGTTATTTAATTATATATAATTTTTCATGCGGTCTGTCCCGGAGTCACCTAGTGCAG", "binding signal": "9310 fluorescence intensity (a.u.)"}, {"sequence": "TTATTTTGTGTTGATGTTTTGACCGAATGATTCTTAATTTCGGAGTCACCTAGTGCAG", "binding signal": "8080 fluorescence intensity (a.u.)"}, {"sequence": "GATCAACGAACACTCGTGGGCCGTAGGCGGAGGCGCAAGTCGGAGTCACCTAGTGCAG", "binding signal": "62600 fluorescence intensity (a.u.)"}, {"sequence": "GACATAGATTGCCTTTTTTTACTTTTAGCTCTATTCAGGTCGGAGTCACCTAGTGCAG", "binding signal": "8110 fluorescence intensity (a.u.)"}, {"sequence": "GGCTTTTTTTTTTGGTTGCGTGCGGGCGGTATAATTTGACCGGAGTCACCTAGTGCAG", "binding signal": "11900 fluorescence intensity (a.u.)"}, {"sequence": "GGCGCTAGCTTTTTTCCGCATCTGATTATTTTCGTTCTTTCGGAGTCACCTAGTGCAG", "binding signal": "9170 fluorescence intensity (a.u.)"}, {"sequence": "TTGGTGTTAGTATAAATGTTGTTCCTTTACATCGGTTCTGCGGAGTCACCTAGTGCAG", "binding signal": "11300 fluorescence intensity (a.u.)"}, {"sequence": "ACCGTCTGTCCGGTTTGTCGTTCCAATCCGTTCTTGTTATCGGAGTCACCTAGTGCAG", "binding signal": "9890 fluorescence intensity (a.u.)"}, {"sequence": "ATTTACTCTCGCCCATTTTGGATTCACATTAGATCTGGCCCGGAGTCACCTAGTGCAG", "binding signal": "9970 fluorescence intensity (a.u.)"}, {"sequence": "CATTTACTTGAAGAGTCTTCTTTCGTGTATTCTCTTCCATCGGAGTCACCTAGTGCAG", "binding signal": "10800 fluorescence intensity (a.u.)"}, {"sequence": "CCATGGATCCACCTGTCCACGCAGCTGAGCTTAACCACCGCGGAGTCACCTAGTGCAG", "binding signal": "9800 fluorescence intensity (a.u.)"}, {"sequence": "TAGCATGACCTTTCACCCATACATATGAGCTACTTCTCTTCGGAGTCACCTAGTGCAG", "binding signal": "9280 fluorescence intensity (a.u.)"}, {"sequence": "GCCGTTGAGCCGACTCGATTAATTATACTTCCATTCCAATCGGAGTCACCTAGTGCAG", "binding signal": "8240 fluorescence intensity (a.u.)"}, {"sequence": "CCCACCACCCATTCCGATTCCACCGCGCGCGCACGCCATGCGGAGTCACCTAGTGCAG", "binding signal": "9710 fluorescence intensity (a.u.)"}, {"sequence": "TCCTTTACTTTGCCTAAACAATTCTCAACCATCTGTTTTCCGGAGTCACCTAGTGCAG", "binding signal": "12200 fluorescence intensity (a.u.)"}, {"sequence": "AGGGAATTTGATCTGGTCGGGCCTATGATTTGGTTATACTCGGAGTCACCTAGTGCAG", "binding signal": "8590 fluorescence intensity (a.u.)"}, {"sequence": "TTTGGATTGGGTCGAGTGGATTAATTTGTCAGGTATTAAACGGAGTCACCTAGTGCAG", "binding signal": "8860 fluorescence intensity (a.u.)"}, {"sequence": "GTCACATTCATCCAGTACGAGGTTTCTTTTCTAGGAGGGACGGAGTCACCTAGTGCAG", "binding signal": "8570 fluorescence intensity (a.u.)"}, {"sequence": "GTGGTATTTGGATCCAGTGACTTAATTTTAGTCCCTATATCGGAGTCACCTAGTGCAG", "binding signal": "9000 fluorescence intensity (a.u.)"}, {"sequence": "GATCGCTTCGCGTGGGCTGGGCTCCATGCCGATCTCCGTACGGAGTCACCTAGTGCAG", "binding signal": "9540 fluorescence intensity (a.u.)"}, {"sequence": "CATGCCCGCCTTACTTCGCGCGTCTTACTTCCGCGTGTAACGGAGTCACCTAGTGCAG", "binding signal": "9500 fluorescence intensity (a.u.)"}, {"sequence": "CTCCTTCTATACTTTTACGGTTTTACCCTGTTGTATATGACGGAGTCACCTAGTGCAG", "binding signal": "9620 fluorescence intensity (a.u.)"}, {"sequence": "CCCTTACTGGACTCCCTCAGGTCTTGCCATCACCCGCCTTCGGAGTCACCTAGTGCAG", "binding signal": "10800 fluorescence intensity (a.u.)"}, {"sequence": "ACACCACACCACCCTATAAAAACGCCCGCGATCCACTTGCCGGAGTCACCTAGTGCAG", "binding signal": "9890 fluorescence intensity (a.u.)"}, {"sequence": "ACTAGTTGAAGGAGTTGGGGCTATAAATGGGTGGTGCTATCGGAGTCACCTAGTGCAG", "binding signal": "10900 fluorescence intensity (a.u.)"}, {"sequence": "CACGCCACCTTGATACTCGCGGGCCCACCACTGCCACGCGCGGAGTCACCTAGTGCAG", "binding signal": "10700 fluorescence intensity (a.u.)"}, {"sequence": "TTGATCTCTGTACCCTTCCATATATCTCCACCCTTTTTAACGGAGTCACCTAGTGCAG", "binding signal": "9010 fluorescence intensity (a.u.)"}, {"sequence": "GTGGTCCAATCACCCTTTGACCCTTCGCCTCCGTGGCGCCCGGAGTCACCTAGTGCAG", "binding signal": "8500 fluorescence intensity (a.u.)"}, {"sequence": "TCCCGTCTCTACTTTCTCCTCTCCAGCCTCTCGAAAGCTACGGAGTCACCTAGTGCAG", "binding signal": "8660 fluorescence intensity (a.u.)"}, {"sequence": "TATAGGCCACTTGTGCCTCGGCTCACGTTGACCTGCCTTACGGAGTCACCTAGTGCAG", "binding signal": "8170 fluorescence intensity (a.u.)"}, {"sequence": "GCCCACCTAGTCTATTTCCTACTACTAGTAAACTCGTTTTCGGAGTCACCTAGTGCAG", "binding signal": "9770 fluorescence intensity (a.u.)"}, {"sequence": "TTTTCTTTCTCTCTTATACTTACTTTTGCTGTCCGCAGAACGGAGTCACCTAGTGCAG", "binding signal": "10200 fluorescence intensity (a.u.)"}, {"sequence": "TCGCATCGTTTTTGATTTGTGGCTGACACCATCCTATTCCCGGAGTCACCTAGTGCAG", "binding signal": "10800 fluorescence intensity (a.u.)"}, {"sequence": "CGTGACAACTGCGTCTTCTAGACCTTTCCAGACTCCGTTGCGGAGTCACCTAGTGCAG", "binding signal": "8060 fluorescence intensity (a.u.)"}, {"sequence": "TTTTTCTCCTTTCCCGTCTCTCGTATCGTCAGTTTCTTGCCGGAGTCACCTAGTGCAG", "binding signal": "10700 fluorescence intensity (a.u.)"}, {"sequence": "ATCGAAAAGCCTCGTTCGTCCTGCCCGTCCACCGTGTTGACGGAGTCACCTAGTGCAG", "binding signal": "8380 fluorescence intensity (a.u.)"}, {"sequence": "ATGTTTGTTTCCTTTAAATTAGCTATACTTTCTGTAATCCCGGAGTCACCTAGTGCAG", "binding signal": "9260 fluorescence intensity (a.u.)"}, {"sequence": "CCGGTATATTTTACATCGATGAACAGTATTTTTCTAATTTCGGAGTCACCTAGTGCAG", "binding signal": "10300 fluorescence intensity (a.u.)"}, {"sequence": "GTCACCGCAACAACCGCCAACTTTATTACCCACCAACTGACGGAGTCACCTAGTGCAG", "binding signal": "9210 fluorescence intensity (a.u.)"}, {"sequence": "TTGAGTTCAGTTATTTGGTTATACCTGACTGCTTGGGCATCGGAGTCACCTAGTGCAG", "binding signal": "8210 fluorescence intensity (a.u.)"}, {"sequence": "GTAGGCCCACTAATCTGCTGTTGTTTATTTTCGTTGTCACCGGAGTCACCTAGTGCAG", "binding signal": "9210 fluorescence intensity (a.u.)"}, {"sequence": "ACCGCCTCCATCTCGACCTCGAGCCAGCCCCACGCCGGGACGGAGTCACCTAGTGCAG", "binding signal": "8820 fluorescence intensity (a.u.)"}, {"sequence": "CCCTGACACTTCCCACACACTGTGCCACTGCCACTCTCCACGGAGTCACCTAGTGCAG", "binding signal": "8540 fluorescence intensity (a.u.)"}, {"sequence": "TTTCATCCCTTAAGATATATCCCTTTGTTTTTTATACCACCGGAGTCACCTAGTGCAG", "binding signal": "8960 fluorescence intensity (a.u.)"}]}]}
